# Source: PubChem BioAssay AID445 (National Center for Advancing Translational Sciences (NCATS), 2006)
# Some of the results follow. The main result of the screen is listed elsewhere. These columns were measured beside it and carry no call. Compounds called inactive in the main read-out are mostly missing here. Words in brackets tell the shape of the fitted curve; partial curves, single points and poor fits give uncertain potencies.
# Assay: IkB Signaling
# Settings: ABC-DLBCL IkBa-CBG/CBR dual luciferase ratio (green luciferase fused to IkBa over red control in OCI-Ly3 lymphoma cells), 4 h
# Outline: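 Luminescence ratio of IκBα-fused green versus native red beetle luciferase in OCI-Ly3 cells, 4 h post-doxycycline with compound; red signal alone, scaled from basal (0%) to zero light (-100%), flagged nonspecific or cytotoxic effects.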
# [1] = measured here: control luc red channel unless noted
smiles,measurement,setting,value
COc1cccc(N2CCN(C(=O)c3cc4c(s3)-c3c(C)cccc3OC4)CC2)c1,AC50,[1],"3.16 µM [falling, full curve]"
Cc1ccc(NC(=O)CN2C(=O)COc3ccc(S(=O)(=O)N4CCCCCC4)cc32)cc1Cl,AC50,[1],"15.8 µM [falling, partial curve]"
COc1ccccc1OCC(=O)N(Cc1nc(-c2ccccc2)no1)C1CCCCC1,AC50,[1],"25.1 µM [falling, single point]"
O=C(c1ccc(F)cc1F)N1CCC(c2nc(-c3ccc(S(=O)(=O)N4CCCC4)cc3)no2)CC1,AC50,[1],"39.8 µM [falling, single point]"
CCN(CC)S(=O)(=O)c1ccc2c(c1)nc(CN(C)C(=O)Nc1ccc(F)cc1)n2C,AC50,[1],"2.51 µM [rising, partial curve]"
COc1cc(Cl)c(C)cc1NC(=O)CCc1c(C)nc2c3cccnc3nn2c1C,AC50,[1],"39.8 µM [falling, single point]"
O=C1CC(c2ccco2)Cc2nc(N3CCc4ccccc4C3)ncc21 (stereo unspecified),AC50,[1],"25.1 µM [falling, single point]"
O=C(Nc1ccc(C(=O)N2CCCCC2)cc1)c1nsc2ccccc12,AC50,[1],"0.158 µM [falling, full curve]"
O=C(Nc1nc2n(n1)C(c1ccccc1)C=C(c1ccccc1)N2)c1ccccc1 (stereo unspecified),AC50,[1],"31.6 µM [falling, partial curve]"
Fc1ccc(Nc2nc(SCc3cccc(Cl)c3)nc3ccccc23)cc1,AC50,[1],"39.8 µM [falling, single point]"
CSc1nc(-c2ccccc2Cl)nc2c1Cc1c(CO)cnc(C)c1O2,AC50,[1],"0.794 µM [rising, full curve]"
Cc1oc(-c2ccc3c(c2)OCCO3)cc1C(=O)O,AC50,[1],"0.0794 µM [falling, full curve]"
COc1ccc2[nH]c(=O)c(C(c3nnnn3C3CCCC3)N(C)C3CCCCC3)cc2c1 (stereo unspecified),AC50,[1],"39.8 µM [falling, single point]"
CCc1nnc2c(N3CCN(c4cccc(C(F)(F)F)c4)CC3)nc3ccccc3n12,AC50,[1],"10 µM [falling, partial curve]"
COc1ccc(N(CC(=O)N2CCc3ccccc3C2)S(=O)(=O)c2ccc(C)cc2)cc1Cl,AC50,[1],"10 µM [falling, partial curve, poor fit]"
COc1ccc(C2=C(C(C)=O)Sc3nnc(-c4ccc(Cl)cc4)n3N2C(C)=O)cc1OC,AC50,[1],"1.58 µM [falling, partial curve]"
O=C(Nc1c(C(=O)N2CCN(c3ccccc3F)CC2)oc2ccccc12)c1ccco1,AC50,[1],"5.01 µM [falling, partial curve]"
CNC(=O)[C@@H]1O[C@@H](n2cnc3c(N)ncnc32)[C@@H](O)[C@H]1O,AC50,measured here: IkB-luc green channel,"0.0316 µM [rising, full curve, poor fit]"
same,AC50,measured here: control luc red channel,"0.0501 µM [rising, full curve, poor fit]"
N#CC1=C2SCN(C3CCCCC3)CN2C(=O)CC1c1ccc(Br)cc1 (stereo unspecified),AC50,[1],"1 µM [falling, partial curve]"
COc1ccc(-n2nc3cc(C)c(N)c(Br)c3n2)cc1,AC50,[1],"31.6 µM [rising, single point] [measured here: IkB-luc green channel]"
O=C1c2ccccc2C(=O)N1CCCCN(C(=O)c1ccco1)c1ccc(Cl)cc1,AC50,[1],"12.6 µM [falling, partial curve]"
COc1ccc(NCc2cccn2-c2nnc(N3CCC(C)CC3)s2)c(OC)c1,AC50,[1],"10 µM [falling, partial curve]"
O=C(CSc1nc2c(c(=O)[nH]1)CCC2)Nc1cc(C(F)(F)F)ccc1Cl,AC50,[1],"31.6 µM [falling, single point]"
Cn1ccc2c(OCC(=O)NCc3ccc(F)cc3)cccc2c1=O,AC50,[1],"12.6 µM [rising, partial curve]"
COc1c(Cl)cc(Cl)cc1C(=O)Nc1cccc2cccnc12,AC50,[1],"12.6 µM [falling, partial curve]"
CCc1cccc(NC(=O)CSc2nccn2C)c1,AC50,[1],"1 µM [rising, full curve]"
CCOC(=O)c1cc(S(=O)(=O)Nc2cc(C)c(Cl)cc2OC)[nH]n1,AC50,[1],"10 µM [falling, partial curve]"
CCc1nnc(NC(=O)c2nc(SCc3ccc(F)cc3)ncc2Cl)s1,AC50,[1],"31.6 µM [falling, single point]"
CCOc1ccc(OCC)c(NS(=O)(=O)c2ccc3c(c2)CCCN3C(C)=O)c1,AC50,[1],"1 µM [rising, full curve]"
CCCCn1c(C2CC(=O)N(c3ccc(OCC)cc3)C2)nc2ccccc21 (stereo unspecified),AC50,[1],"15.8 µM [falling, partial curve]"
O=C(OCC1CCCO1)c1ccc2c(c1)N(Cc1c(F)cccc1Cl)C(=O)c1ccccc1S2(=O)=O (stereo unspecified),AC50,[1],"0.1 µM [rising, full curve, poor fit]"
CCOCCn1c(=NC(=O)c2ccc3c(c2)OCCO3)sc2cc(OCC)ccc21,AC50,[1],"5.01 µM [falling, partial curve, poor fit]"
COCC(C)NC(=O)C1=CC(c2ccc3c(c2)OCO3)=NS(=O)(=O)N1C (stereo unspecified),AC50,[1],"25.1 µM [falling, single point]"
O=C(Nc1ccccc1C(F)(F)F)C1CCN(c2nnc(-n3cccc3)s2)CC1,AC50,[1],"39.8 µM [falling, single point]"
Cc1cccc(S(=O)(=O)c2cn(Cc3ccc(F)cc3)c3cc(N4CCOCC4)c(F)cc3c2=O)c1,AC50,[1],"39.8 µM [falling, single point]"
O=C(Cn1cc(SCc2ccc(F)cc2)c2ccccc21)N1CCCC1,AC50,[1],"20 µM [falling, single point]"
CCN(CC)S(=O)(=O)c1ccc2c(c1)c(=O)c(C(=O)N1CCN(c3cc(C)ccc3C)CC1)cn2C,AC50,[1],"20 µM [falling, partial curve, poor fit]"
Cc1nc(NC(=O)c2ccccc2)sc1-c1csc(N)n1,AC50,[1],"10 µM [falling, partial curve]"
NCCNS(=O)(=O)c1cccc2c(Cl)cccc12,AC50,[1],"20 µM [falling, partial curve]"
CCc1ccc2[nH]c(=O)c(C(c3nnnn3CC3CCCO3)N3CCCc4ccccc43)cc2c1 (stereo unspecified),AC50,[1],"25.1 µM [falling, single point]"

# Part of the list above, with tabs:
smiles	measurement	setting	value
O=C(Nc1nc2n(n1)C(c1ccccc1)C=C(c1ccccc1)N2)c1ccccc1 (stereo unspecified)	AC50	[1]	31.6 µM [falling, partial curve]
Fc1ccc(Nc2nc(SCc3cccc(Cl)c3)nc3ccccc23)cc1	AC50	[1]	39.8 µM [falling, single point]
CSc1nc(-c2ccccc2Cl)nc2c1Cc1c(CO)cnc(C)c1O2	AC50	[1]	0.794 µM [rising, full curve]
Cc1oc(-c2ccc3c(c2)OCCO3)cc1C(=O)O	AC50	[1]	0.0794 µM [falling, full curve]
COc1ccc2[nH]c(=O)c(C(c3nnnn3C3CCCC3)N(C)C3CCCCC3)cc2c1 (stereo unspecified)	AC50	[1]	39.8 µM [falling, single point]
CCc1nnc2c(N3CCN(c4cccc(C(F)(F)F)c4)CC3)nc3ccccc3n12	AC50	[1]	10 µM [falling, partial curve]
COc1ccc(N(CC(=O)N2CCc3ccccc3C2)S(=O)(=O)c2ccc(C)cc2)cc1Cl	AC50	[1]	10 µM [falling, partial curve, poor fit]
COc1ccc(C2=C(C(C)=O)Sc3nnc(-c4ccc(Cl)cc4)n3N2C(C)=O)cc1OC	AC50	[1]	1.58 µM [falling, partial curve]
O=C(Nc1c(C(=O)N2CCN(c3ccccc3F)CC2)oc2ccccc12)c1ccco1	AC50	[1]	5.01 µM [falling, partial curve]
CNC(=O)[C@@H]1O[C@@H](n2cnc3c(N)ncnc32)[C@@H](O)[C@H]1O	AC50	measured here: IkB-luc green channel	0.0316 µM [rising, full curve, poor fit]
same	AC50	measured here: control luc red channel	0.0501 µM [rising, full curve, poor fit]
N#CC1=C2SCN(C3CCCCC3)CN2C(=O)CC1c1ccc(Br)cc1 (stereo unspecified)	AC50	[1]	1 µM [falling, partial curve]
